Experimental data published in the supplement of paper PMC10849652.
The other results are listed elsewhere or left out.

Chains of the proteins cited; added tags and fusions are not shown. Lines headed by an entry give the natural chain unless they say otherwise; changes in a name come on top.
UniProt Q96BW9: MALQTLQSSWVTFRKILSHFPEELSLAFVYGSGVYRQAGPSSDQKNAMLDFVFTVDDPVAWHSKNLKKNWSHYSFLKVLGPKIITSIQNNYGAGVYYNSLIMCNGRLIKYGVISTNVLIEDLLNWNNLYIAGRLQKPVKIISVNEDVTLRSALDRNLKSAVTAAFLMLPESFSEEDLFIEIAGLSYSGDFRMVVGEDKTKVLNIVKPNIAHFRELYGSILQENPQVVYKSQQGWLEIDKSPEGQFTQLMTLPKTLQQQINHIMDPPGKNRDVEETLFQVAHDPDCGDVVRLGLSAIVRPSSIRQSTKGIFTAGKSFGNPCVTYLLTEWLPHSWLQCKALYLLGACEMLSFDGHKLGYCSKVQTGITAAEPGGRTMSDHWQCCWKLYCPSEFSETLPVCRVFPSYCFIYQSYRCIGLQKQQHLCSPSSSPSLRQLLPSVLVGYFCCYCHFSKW
UniProt Q9H5Q4: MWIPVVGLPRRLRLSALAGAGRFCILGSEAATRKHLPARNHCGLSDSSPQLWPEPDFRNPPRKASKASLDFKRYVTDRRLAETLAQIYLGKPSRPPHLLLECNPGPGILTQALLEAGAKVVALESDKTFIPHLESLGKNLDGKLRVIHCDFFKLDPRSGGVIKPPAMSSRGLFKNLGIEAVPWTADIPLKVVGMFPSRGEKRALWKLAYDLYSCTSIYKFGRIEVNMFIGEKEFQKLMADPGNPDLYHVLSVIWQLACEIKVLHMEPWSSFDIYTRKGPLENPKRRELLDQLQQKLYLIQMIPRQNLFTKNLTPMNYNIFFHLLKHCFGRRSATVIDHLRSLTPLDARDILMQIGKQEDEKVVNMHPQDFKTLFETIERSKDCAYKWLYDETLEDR
UniProt Q9UPU7: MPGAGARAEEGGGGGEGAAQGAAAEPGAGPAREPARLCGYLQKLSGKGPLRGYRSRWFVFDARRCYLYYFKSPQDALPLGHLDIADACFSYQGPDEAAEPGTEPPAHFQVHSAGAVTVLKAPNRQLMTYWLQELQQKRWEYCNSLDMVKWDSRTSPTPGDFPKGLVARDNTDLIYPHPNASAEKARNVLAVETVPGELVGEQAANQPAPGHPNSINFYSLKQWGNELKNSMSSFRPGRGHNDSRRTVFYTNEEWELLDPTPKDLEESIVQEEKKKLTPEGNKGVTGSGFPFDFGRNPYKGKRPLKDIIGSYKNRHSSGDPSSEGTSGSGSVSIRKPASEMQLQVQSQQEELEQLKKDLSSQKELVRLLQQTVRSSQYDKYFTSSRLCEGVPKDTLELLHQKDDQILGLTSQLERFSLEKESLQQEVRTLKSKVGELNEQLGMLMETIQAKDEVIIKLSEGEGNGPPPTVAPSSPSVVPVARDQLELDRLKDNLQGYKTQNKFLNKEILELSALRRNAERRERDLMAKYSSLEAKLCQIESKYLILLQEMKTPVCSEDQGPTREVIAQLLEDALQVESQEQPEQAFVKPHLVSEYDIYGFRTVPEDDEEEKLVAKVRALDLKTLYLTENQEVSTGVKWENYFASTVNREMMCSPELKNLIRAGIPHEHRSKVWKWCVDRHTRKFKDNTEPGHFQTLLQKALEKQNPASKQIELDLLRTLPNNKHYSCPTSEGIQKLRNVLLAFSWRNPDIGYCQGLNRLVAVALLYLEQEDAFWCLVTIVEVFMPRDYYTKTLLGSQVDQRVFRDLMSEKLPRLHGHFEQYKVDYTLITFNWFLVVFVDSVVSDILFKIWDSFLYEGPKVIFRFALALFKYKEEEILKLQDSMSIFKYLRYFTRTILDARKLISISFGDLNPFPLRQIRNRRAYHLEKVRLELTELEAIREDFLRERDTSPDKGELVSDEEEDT
UniProt P02787, whole entry, looked up: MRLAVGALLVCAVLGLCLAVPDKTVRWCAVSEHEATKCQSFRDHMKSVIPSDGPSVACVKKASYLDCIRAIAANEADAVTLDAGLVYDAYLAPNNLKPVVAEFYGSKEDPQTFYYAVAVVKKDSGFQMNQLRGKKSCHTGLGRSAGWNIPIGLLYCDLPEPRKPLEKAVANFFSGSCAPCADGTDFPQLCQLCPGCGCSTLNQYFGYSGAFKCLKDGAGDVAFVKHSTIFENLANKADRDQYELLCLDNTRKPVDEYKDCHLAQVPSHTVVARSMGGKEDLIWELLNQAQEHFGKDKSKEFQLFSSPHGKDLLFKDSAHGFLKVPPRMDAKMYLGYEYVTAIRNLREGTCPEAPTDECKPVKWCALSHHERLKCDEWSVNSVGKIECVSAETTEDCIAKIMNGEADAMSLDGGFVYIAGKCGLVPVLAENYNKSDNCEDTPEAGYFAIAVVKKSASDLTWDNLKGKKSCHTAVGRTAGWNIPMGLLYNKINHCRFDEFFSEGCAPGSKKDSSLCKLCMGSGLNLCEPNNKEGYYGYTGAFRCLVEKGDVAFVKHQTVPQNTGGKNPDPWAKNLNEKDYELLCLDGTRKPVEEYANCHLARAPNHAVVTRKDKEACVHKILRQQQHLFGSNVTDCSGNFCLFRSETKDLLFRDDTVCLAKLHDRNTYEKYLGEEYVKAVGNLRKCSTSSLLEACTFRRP
UniProt O14776: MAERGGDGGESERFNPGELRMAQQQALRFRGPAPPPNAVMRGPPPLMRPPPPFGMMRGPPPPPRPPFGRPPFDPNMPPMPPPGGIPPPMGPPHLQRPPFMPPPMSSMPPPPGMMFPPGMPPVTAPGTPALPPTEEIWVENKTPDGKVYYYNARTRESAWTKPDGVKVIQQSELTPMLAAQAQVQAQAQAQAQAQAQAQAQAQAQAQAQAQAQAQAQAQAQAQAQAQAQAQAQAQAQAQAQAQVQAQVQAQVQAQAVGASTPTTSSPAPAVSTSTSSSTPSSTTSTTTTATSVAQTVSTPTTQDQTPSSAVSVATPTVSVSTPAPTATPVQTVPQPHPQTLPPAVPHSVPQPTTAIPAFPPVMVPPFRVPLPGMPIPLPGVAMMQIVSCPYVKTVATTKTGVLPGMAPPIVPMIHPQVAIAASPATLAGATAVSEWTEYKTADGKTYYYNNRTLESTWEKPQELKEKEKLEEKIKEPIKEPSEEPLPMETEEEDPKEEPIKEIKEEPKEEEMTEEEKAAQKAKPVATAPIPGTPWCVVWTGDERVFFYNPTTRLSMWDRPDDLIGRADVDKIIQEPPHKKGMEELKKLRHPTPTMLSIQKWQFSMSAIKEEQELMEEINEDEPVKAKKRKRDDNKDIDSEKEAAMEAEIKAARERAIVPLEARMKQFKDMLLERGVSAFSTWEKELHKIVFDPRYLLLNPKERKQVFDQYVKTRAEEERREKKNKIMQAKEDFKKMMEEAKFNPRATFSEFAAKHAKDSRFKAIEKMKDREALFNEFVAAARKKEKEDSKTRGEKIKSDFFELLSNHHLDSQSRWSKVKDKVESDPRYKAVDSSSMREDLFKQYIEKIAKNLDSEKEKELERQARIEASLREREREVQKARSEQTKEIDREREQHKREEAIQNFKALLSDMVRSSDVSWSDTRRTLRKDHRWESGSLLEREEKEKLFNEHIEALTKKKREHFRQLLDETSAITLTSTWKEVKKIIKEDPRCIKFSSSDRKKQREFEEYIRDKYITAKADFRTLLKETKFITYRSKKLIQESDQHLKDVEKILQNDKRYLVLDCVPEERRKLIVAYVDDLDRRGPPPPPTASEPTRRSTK
UniProt Q8WUA7: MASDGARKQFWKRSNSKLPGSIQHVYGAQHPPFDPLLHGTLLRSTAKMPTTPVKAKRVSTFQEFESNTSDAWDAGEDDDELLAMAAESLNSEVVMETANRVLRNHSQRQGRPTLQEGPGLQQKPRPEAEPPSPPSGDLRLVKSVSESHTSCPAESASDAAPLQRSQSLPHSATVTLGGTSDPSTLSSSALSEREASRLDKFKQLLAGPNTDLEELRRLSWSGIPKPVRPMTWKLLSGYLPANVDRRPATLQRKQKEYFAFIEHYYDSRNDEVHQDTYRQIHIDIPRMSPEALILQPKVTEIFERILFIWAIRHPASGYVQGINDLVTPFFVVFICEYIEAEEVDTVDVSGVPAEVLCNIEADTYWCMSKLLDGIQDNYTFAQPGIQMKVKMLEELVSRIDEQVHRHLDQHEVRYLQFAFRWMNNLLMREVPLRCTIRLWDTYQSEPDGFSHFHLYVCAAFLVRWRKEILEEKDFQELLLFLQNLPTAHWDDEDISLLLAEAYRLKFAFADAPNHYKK
UniProt Q15633: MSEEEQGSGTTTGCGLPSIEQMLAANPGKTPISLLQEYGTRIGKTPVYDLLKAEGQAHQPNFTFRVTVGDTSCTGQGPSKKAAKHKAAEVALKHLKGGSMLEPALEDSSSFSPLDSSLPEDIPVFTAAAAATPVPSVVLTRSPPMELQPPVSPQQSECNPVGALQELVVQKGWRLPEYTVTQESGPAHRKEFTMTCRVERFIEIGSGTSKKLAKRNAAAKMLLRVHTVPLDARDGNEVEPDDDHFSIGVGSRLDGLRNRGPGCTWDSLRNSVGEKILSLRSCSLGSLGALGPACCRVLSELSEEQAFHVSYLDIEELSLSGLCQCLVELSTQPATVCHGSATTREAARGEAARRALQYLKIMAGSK
UniProt O60907: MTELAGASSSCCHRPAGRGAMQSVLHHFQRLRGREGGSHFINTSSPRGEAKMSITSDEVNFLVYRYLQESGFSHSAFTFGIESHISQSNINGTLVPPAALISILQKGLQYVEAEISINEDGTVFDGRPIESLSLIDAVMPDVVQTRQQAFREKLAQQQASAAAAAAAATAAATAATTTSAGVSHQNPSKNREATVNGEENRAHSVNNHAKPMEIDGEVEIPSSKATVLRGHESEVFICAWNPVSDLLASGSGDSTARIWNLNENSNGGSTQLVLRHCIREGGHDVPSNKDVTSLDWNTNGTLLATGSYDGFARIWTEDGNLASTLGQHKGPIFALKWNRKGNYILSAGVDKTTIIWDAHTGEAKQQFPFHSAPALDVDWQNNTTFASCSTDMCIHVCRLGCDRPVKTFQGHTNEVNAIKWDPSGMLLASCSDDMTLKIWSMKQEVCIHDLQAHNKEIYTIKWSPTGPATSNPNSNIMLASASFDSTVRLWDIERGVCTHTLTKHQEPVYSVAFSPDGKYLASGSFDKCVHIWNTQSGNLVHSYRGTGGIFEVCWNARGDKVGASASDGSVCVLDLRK
UniProt Q6ICL3: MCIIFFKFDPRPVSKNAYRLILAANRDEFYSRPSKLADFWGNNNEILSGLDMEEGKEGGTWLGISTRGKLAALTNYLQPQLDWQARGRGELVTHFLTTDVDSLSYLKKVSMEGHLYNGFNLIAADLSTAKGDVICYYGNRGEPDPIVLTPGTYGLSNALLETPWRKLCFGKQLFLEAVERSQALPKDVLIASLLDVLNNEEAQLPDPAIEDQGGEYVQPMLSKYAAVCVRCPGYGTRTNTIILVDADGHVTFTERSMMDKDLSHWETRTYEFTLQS
UniProt Q9BW92: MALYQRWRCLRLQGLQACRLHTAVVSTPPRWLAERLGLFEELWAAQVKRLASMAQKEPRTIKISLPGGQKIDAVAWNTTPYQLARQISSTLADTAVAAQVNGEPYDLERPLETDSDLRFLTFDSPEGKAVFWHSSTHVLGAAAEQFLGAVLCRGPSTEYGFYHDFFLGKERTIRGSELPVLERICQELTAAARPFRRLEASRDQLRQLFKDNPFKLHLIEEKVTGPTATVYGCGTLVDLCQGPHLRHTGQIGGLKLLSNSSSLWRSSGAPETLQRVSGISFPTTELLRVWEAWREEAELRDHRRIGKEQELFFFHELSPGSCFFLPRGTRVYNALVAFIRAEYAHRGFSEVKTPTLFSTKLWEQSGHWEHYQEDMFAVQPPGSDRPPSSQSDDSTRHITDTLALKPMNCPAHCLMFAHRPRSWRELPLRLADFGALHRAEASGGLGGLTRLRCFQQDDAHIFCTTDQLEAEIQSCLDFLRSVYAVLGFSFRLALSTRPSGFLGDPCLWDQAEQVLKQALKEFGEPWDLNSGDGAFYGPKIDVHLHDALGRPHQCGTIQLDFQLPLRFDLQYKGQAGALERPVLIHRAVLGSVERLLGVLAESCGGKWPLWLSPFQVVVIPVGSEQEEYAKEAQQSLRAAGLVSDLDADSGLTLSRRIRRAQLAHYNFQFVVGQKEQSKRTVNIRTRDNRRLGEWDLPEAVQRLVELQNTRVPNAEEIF
UniProt Q5JUR7: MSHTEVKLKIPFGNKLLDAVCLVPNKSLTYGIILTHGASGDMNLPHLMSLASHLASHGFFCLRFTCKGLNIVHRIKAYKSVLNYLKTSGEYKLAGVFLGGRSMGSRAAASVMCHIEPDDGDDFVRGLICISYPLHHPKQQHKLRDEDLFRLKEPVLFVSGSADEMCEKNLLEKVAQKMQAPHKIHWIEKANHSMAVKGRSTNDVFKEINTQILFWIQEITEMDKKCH

Assays:
Test in all cases: log2 fold change, soluble protein after heating vs DMSO (PISA); higher = thermal stabilisation; K562 lysate, 10 uM; active = over 0.2 and 3.5 SD of the protein, either way, in both replicates (recomputed)
erlotinib = compound: C#Cc1cccc(Nc2ncnc3cc(OCCOC)c(OCCOC)cc23)c1 [erlotinib]
Method in brief: (§1)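 Dounce homogenisation of K562 pellets in PBS pH 7.4 with 1 mM MgCl2 produced a crude extract, used at 1 mg/mL protein. Exposure to 10 μM compound lasted 30 min, and aliquots were then heated for 3 min across 48°C-58°C, pooled and brought to 0.5% NP-40 at 4°C. The supernatant after 21,000xg for 90 min was quantified by TMTpro 16plex LC-MS/MS with channel sums equalised. Duplicate values are given as log-two fold change in thermal stability relative to solvent controls.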

[1] = compound: C/C(=N\NC(=O)C1=CC(=CC=C1)S(=O)(=O)N2CCOCC2)/C3=C(C=CC(=C3)Cl)O
Method in brief: as §1

[2] = compound: C1=CC(=CC=C1C2=NC3=C(N2)C=C(C=C3)C(=O)N)OC4=CC=C(C=C4)Cl
Method in brief: as §1

[3] = compound: C1=CC2=C(C=CC(=C2)/C=C\3/C(=O)NC(=NCC4=CC=CS4)S3)N=C1
Method in brief: as §1

[4] = compound: C1=CC2=NC=CN=C2C=C1/C=C/3\C(=O)NC(=O)S3
Method in brief: as §1

[5] = compound: C1=CC=C(C=C1)C2=NC(=C(N2)C3=CC=NC=C3)C4=CC(=C(C=C4)Cl)O
Method in brief: as §1

[6] = compound: C1=CC=C2C(=C1)C3=NNC4=CC=CC(=C43)C2=O
Method in brief: as §1

[7] = compound: C1CCN(C1)C(=O)NC2=CC=CC(=C2)NC3=NC=C(C(=N3)NCCC4=CN=CN4)Br
Method in brief: as §1

[8] = compound: C1CN(CCC1(CC2=CC=C(C=C2)Cl)N)C3=NC=NC4=C3C=CN4
Method in brief: as §1

IRAK-1-4 Inhibitor I = compound: C1COCCN1CCN2C3=CC=CC=C3N=C2NC(=O)C4=CC(=CC=C4)[N+](=O)[O-] [IRAK-1-4 Inhibitor I]
Method in brief: as §1

ibrutinib = compound: C=CC(=O)N1CCC[C@@H](n2nc(-c3ccc(Oc4ccccc4)cc3)c3c(N)ncnc32)C1 [ibrutinib]
Method in brief: as §1

[9] = compound: CC(=O)c1cnc2ccc(-c3cc(Cl)c(O)c(Cl)c3)nc2c1N[C@H]1CC[C@H](CN(C)C)CC1
Method in brief: as §1

ralimetinib = compound: CC(C)(C)Cn1c(N)nc2ccc(-c3[nH]c(C(C)(C)C)nc3-c3ccc(F)cc3)nc21 [ralimetinib]
Method in brief: as §1

[10] = compound: CC(C)(O)CC(=O)NCCn1ccc2ncnc(Nc3ccc(Oc4cccc(C(F)(F)F)c4)c(Cl)c3)c21
Method in brief: as §1

[11] = compound: CC(C)C1=C2N=C(C=C(N2N=C1)NCC3=CC=CC=C3)NCCCCCCN
Method in brief: as §1

[12] = compound: CC1=C(C(CC(=O)N1)C2=CC=C(C=C2)C(F)(F)F)C(=O)NC3=C(C=C4C(=C3)C=NN4)F
Method in brief: as §1

[13] = compound: CC1=C(C2=C(C=C1)C(=O)C3=CC=CC=C3N2CCCN)C
Method in brief: as §1

[14] = compound: CC1=C(C=C(C=C1)NC(=O)C2=CC(=CC=C2)C(C)(C)C#N)NC3=CC4=C(C=C3)N=CN(C4=O)C
Method in brief: as §1

[15] = compound: CC1=C(C=C(C=C1)NC(=O)C2=CC(=CC=C2)N(C)C)NC(=O)C3=CC=C(C=C3)O
Method in brief: as §1

[16] = compound: CC1=CC=C(C=C1)SC2=C3C=C(SC3=CN=C2)C(=O)N
Method in brief: as §1

Measured: log2 fold change

TAMM41 isoform 3 (UniProt Q96BW9)
inactive: erlotinib -0.028 | [1] -0.035 | [2] 0.056 | [3] -0.021 | [4] 0.06 | [5] -0.005 | [6] 0.035 | [7] -0.082 | [8] 0.061 | IRAK-1-4 Inhibitor I -0.034 | ibrutinib 0.118 | [9] 0.022 | ralimetinib 0.026 | [10] -0.025 | [11] -0.075 | [12] -0.031 | [13] -0.002 | [14] -0.074 | [15] 0.001 | [16] 0.056

TFB2M (UniProt Q9H5Q4)
inactive: erlotinib 0.058 | [1] 0.205 | [2] -0.015 | [3] 0.001 | [4] 0.019 | [5] -0.015 | [6] -0.039 | [7] 0.001 | [8] -0.004 | IRAK-1-4 Inhibitor I 0.046 | ibrutinib -0.049 | [9] 0.014 | ralimetinib 0.032 | [10] -0.013 | [11] -0.038 | [12] 0.034 | [13] 0.048 | [14] 0.018 | [15] 0.008 | [16] 0.011

TBC1D2B (UniProt Q9UPU7)
inactive: erlotinib -0.005 | [1] -0.028 | [2] 0.098 | [3] 0.03 | [4] -0.053 | [5] 0.042 | [6] -0.111 | [7] -0.031 | [8] -0.024 | IRAK-1-4 Inhibitor I -0.075 | ibrutinib 0.075 | [9] -0.017 | ralimetinib 0.008 | [10] 0.003 | [11] -0.054 | [12] 0.058 | [13] 0.006 | [14] -0.03 | [15] 0.031 | [16] 0.025

TF (UniProt P02787)
inactive: erlotinib -0.059 | [1] 0.174 | [2] 0.016 | [3] -0.019 | [4] -0.009 | [5] 0.017 | [6] 0.087 | [7] 0.118 | [8] 0.071 | IRAK-1-4 Inhibitor I -0.029 | ibrutinib -0.031 | [9] -0.034 | ralimetinib 0.022 | [10] -0.059 | [11] 0.063 | [12] 0.182 | [13] 0.105 | [14] -0.095 | [15] 0.014 | [16] 0.008

TCERG1 (UniProt O14776)
inactive: erlotinib -0.03 | [1] -0.121 | [2] -0.001 | [3] -0.013 | [4] -0.006 | [5] -0.03 | [6] -0.016 | [7] -0.004 | [8] 0.023 | IRAK-1-4 Inhibitor I -0.012 | ibrutinib 0.013 | [9] 0.009 | ralimetinib 0.018 | [10] -0.008 | [11] -0.004 | [12] 0.005 | [13] 0.039 | [14] -0.074 | [15] 0.009 | [16] 0.015

TBC1D22A (UniProt Q8WUA7)
inactive: erlotinib -0.028 | [1] 0.023 | [2] -0.068 | [3] -0.005 | [4] -0.017 | [5] 0.002 | [6] 0.016 | [7] -0.019 | [8] -0.034 | IRAK-1-4 Inhibitor I -0.023 | ibrutinib -0.036 | [9] -0.013 | ralimetinib 0.059 | [10] 0.001 | [11] 0.03 | [12] -0.007 | [13] -0.003 | [14] -0.014 | [15] -0.017 | [16] -0.032

TAOK1 (UniProt Q7L7X3)
inactive: erlotinib -0.005 | [1] -0.018 | [2] 0.021 | [3] -0.003 | [4] 0.026 | [5] 0.02 | [6] 0.03 | [7] -0.021 | [8] 0.041 | IRAK-1-4 Inhibitor I -0.018 | ibrutinib 0.061 | [9] -0.086 | ralimetinib -0.006 | [10] 0.006 | [11] 0.005 | [12] -0.014 | [13] 0.028 | [14] 0.015 | [15] 0.011 | [16] 0.112

Random excerpt: two records from the list.
TBC1D22A (UniProt Q8WUA7)
inactive: erlotinib -0.028 | [1] 0.023 | [2] -0.068 | [3] -0.005 | [4] -0.017 | [5] 0.002 | [6] 0.016 | [7] -0.019 | [8] -0.034 | IRAK-1-4 Inhibitor I -0.023 | ibrutinib -0.036 | [9] -0.013 | ralimetinib 0.059 | [10] 0.001 | [11] 0.03 | [12] -0.007 | [13] -0.003 | [14] -0.014 | [15] -0.017 | [16] -0.032

TCERG1 (UniProt O14776)
inactive: erlotinib -0.03 | [1] -0.121 | [2] -0.001 | [3] -0.013 | [4] -0.006 | [5] -0.03 | [6] -0.016 | [7] -0.004 | [8] 0.023 | IRAK-1-4 Inhibitor I -0.012 | ibrutinib 0.013 | [9] 0.009 | ralimetinib 0.018 | [10] -0.008 | [11] -0.004 | [12] 0.005 | [13] 0.039 | [14] -0.074 | [15] 0.009 | [16] 0.015

(next part)

TARBP2 (UniProt Q15633)
inactive: erlotinib 0.03 | [1] -0.095 | [2] -0.066 | [3] -0.026 | [4] 0.007 | [5] 0.027 | [6] -0.029 | [7] 0.012 | [8] -0.002 | IRAK-1-4 Inhibitor I 0.011 | ibrutinib -0.013 | [9] 0 | ralimetinib -0.025 | [10] -0.042 | [11] 0.013 | [12] 0.074 | [13] -0.002 | [14] 0.029 | [15] 0.062 | [16] -0.015

TBL1X (UniProt O60907)
inactive: erlotinib 0.011 | [1] 0.04 | [2] 0.025 | [3] 0.033 | [4] -0.03 | [5] -0.044 | [6] 0.013 | [7] -0.001 | [8] 0.003 | IRAK-1-4 Inhibitor I -0.059 | ibrutinib 0.052 | [9] 0.035 | ralimetinib 0.045 | [10] 0.036 | [11] 0.001 | [12] 0.018 | [13] 0.075 | [14] -0.066 | [15] 0.016 | [16] -0.004

TANGO2 isoform 4 (UniProt Q6ICL3)
inactive: erlotinib 0.014 | [1] -0.067 | [2] 0.011 | [3] -0.044 | [4] 0.008 | [5] 0 | [6] 0.028 | [7] -0.001 | [8] 0 | IRAK-1-4 Inhibitor I 0.031 | ibrutinib 0.097 | [9] -0.027 | ralimetinib 0.005 | [10] -0.028 | [11] -0.038 | [12] -0.062 | [13] -0.005 | [14] -0.015 | [15] -0.007 | [16] 0.003

TBC1D5 isoform 2 (UniProt Q92609)
inactive: erlotinib -0.03 | [1] -0.145 | [2] 0.009 | [3] 0.007 | [4] 0.009 | [5] 0.02 | [6] -0.028 | [7] 0.022 | [8] -0.003 | IRAK-1-4 Inhibitor I 0 | ibrutinib -0.023 | [9] -0.01 | ralimetinib 0.019 | [10] 0.015 | [11] -0.026 | [12] 0.012 | [13] 0.004 | [14] 0.035 | [15] 0.004 | [16] -0.027

TBCD (UniProt Q9BTW9)
inactive: erlotinib 0.02 | [1] -0.043 | [2] 0.01 | [3] 0.006 | [4] 0.023 | [5] -0.011 | [6] -0.049 | [7] -0.003 | [8] -0.013 | IRAK-1-4 Inhibitor I 0.013 | ibrutinib 0.01 | [9] 0.014 | ralimetinib 0.014 | [10] -0.025 | [11] 0.015 | [12] -0.018 | [13] 0.017 | [14] -0.014 | [15] -0.018 | [16] 0.008

TARS2 (UniProt Q9BW92)
inactive: erlotinib 0.001 | [1] -0.063 | [2] -0.026 | [3] 0.017 | [4] -0.017 | [5] 0.023 | [6] 0.002 | [7] -0.011 | [8] 0.015 | IRAK-1-4 Inhibitor I 0.009 | ibrutinib -0.06 | [9] 0.051 | ralimetinib 0.005 | [10] -0.021 | [11] 0.041 | [12] 0.008 | [13] 0.03 | [14] 0.028 | [15] 0.035 | [16] 0.009

TBC1D9B isoform 2 (UniProt Q66K14)
inactive: erlotinib 0.086 | [1] -0.011 | [2] 0.074 | [3] -0.061 | [4] -0.037 | [5] -0.015 | [6] -0.013 | [7] -0.031 | [8] 0.024 | IRAK-1-4 Inhibitor I 0.105 | ibrutinib 0.004 | [9] -0.041 | ralimetinib 0.03 | [10] -0.15 | [11] 0.063 | [12] -0.064 | [13] -0.038 | [14] 0.049 | [15] -0.003 | [16] -0.018

TBRG4 (UniProt Q969Z0)
inactive: erlotinib 0.033 | [1] -0.048 | [2] -0.036 | [3] 0.001 | [4] 0.013 | [5] -0.044 | [6] -0.031 | [7] 0.013 | [8] 0.008 | IRAK-1-4 Inhibitor I -0.009 | ibrutinib 0.014 | [9] 0.025 | ralimetinib 0.002 | [10] -0.023 | [11] -0.011 | [12] 0.001 | [13] 0.062 | [14] -0.041 | [15] 0.044 | [16] -0.023

TEX30 (UniProt Q5JUR7)
inactive: erlotinib -0.012 | [1] -0.106 | [2] -0.112 | [3] 0.03 | [4] 0.046 | [5] -0.009 | [6] -0.065 | [7] -0.034 | [8] -0.007 | IRAK-1-4 Inhibitor I -0.031 | ibrutinib 0.17 | [9] 0.003 | ralimetinib 0.047 | [10] -0.053 | [11] -0.045 | [12] -0.033 | [13] 0.016 | [14] -0.027 | [15] 0.019 | [16] 0.019
